Measured values as given in the supplement of paper PMC10849652.
The other results are listed elsewhere or left out.

Chains of the proteins cited; added tags and fusions are not shown. Lines headed by an entry give the natural chain unless they say otherwise; changes in a name come on top.
UniProt P08195: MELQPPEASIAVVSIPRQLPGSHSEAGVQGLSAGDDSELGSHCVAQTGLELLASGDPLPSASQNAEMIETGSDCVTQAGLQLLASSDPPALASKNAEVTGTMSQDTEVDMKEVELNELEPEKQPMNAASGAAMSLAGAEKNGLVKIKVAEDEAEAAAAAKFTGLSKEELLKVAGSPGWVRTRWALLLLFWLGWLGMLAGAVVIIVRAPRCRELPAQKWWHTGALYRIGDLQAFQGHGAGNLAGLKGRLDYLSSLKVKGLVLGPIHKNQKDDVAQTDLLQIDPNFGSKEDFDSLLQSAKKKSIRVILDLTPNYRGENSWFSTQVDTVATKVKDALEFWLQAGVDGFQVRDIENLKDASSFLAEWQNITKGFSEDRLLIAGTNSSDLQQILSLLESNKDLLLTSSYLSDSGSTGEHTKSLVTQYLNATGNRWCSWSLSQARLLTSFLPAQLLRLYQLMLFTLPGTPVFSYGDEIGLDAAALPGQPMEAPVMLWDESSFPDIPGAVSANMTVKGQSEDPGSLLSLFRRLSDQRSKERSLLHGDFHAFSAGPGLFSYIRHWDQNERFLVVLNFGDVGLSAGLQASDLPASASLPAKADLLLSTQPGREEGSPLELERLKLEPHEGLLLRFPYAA
UniProt Q9BS91: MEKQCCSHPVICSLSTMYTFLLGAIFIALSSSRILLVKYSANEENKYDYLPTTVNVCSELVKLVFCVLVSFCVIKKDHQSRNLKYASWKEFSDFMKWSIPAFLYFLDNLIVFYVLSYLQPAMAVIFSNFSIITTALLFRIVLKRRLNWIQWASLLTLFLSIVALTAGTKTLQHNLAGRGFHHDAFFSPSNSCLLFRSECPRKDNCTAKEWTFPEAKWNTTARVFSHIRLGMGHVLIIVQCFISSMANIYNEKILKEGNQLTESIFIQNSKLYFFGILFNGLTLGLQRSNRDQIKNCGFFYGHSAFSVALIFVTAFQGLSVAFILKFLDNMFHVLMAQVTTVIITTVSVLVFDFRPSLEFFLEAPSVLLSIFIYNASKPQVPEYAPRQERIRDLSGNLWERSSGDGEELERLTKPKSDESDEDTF
UniProt Q9H1N7: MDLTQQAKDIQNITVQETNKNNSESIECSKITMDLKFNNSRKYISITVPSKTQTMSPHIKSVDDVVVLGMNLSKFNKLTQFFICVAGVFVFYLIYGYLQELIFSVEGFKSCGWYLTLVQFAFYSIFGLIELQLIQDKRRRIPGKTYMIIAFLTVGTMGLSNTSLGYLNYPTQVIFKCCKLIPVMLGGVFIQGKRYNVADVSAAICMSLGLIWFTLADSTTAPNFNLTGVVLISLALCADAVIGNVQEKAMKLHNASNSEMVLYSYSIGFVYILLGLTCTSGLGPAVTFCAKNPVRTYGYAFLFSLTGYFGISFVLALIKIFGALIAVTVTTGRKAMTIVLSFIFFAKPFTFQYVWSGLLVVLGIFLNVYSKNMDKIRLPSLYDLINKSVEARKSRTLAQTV
UniProt Q9H0C2: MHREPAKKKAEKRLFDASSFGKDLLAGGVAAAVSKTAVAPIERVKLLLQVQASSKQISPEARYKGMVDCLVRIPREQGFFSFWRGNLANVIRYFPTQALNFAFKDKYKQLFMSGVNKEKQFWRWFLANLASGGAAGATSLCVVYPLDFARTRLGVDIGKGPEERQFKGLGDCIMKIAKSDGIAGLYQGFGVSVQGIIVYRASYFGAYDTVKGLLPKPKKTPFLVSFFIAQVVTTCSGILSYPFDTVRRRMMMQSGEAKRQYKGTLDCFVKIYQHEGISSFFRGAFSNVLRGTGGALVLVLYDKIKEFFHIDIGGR
UniProt O43772: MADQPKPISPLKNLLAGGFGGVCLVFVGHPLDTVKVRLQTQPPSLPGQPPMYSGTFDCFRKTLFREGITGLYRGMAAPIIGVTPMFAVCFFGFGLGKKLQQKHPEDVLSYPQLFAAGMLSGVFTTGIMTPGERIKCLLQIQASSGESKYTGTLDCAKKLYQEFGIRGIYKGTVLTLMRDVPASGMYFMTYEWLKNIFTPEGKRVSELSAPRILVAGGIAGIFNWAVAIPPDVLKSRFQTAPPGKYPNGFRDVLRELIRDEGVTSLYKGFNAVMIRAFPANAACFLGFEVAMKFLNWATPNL
UniProt Q9H2D1: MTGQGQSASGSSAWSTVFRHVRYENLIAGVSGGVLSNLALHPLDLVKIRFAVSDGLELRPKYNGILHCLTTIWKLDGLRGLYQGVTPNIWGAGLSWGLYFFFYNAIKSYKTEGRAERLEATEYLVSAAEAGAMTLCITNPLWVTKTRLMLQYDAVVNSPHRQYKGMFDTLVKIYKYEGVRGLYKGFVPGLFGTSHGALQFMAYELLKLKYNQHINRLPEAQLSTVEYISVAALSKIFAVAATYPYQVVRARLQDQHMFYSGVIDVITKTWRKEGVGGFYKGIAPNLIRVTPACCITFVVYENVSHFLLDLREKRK
UniProt Q9C0K1: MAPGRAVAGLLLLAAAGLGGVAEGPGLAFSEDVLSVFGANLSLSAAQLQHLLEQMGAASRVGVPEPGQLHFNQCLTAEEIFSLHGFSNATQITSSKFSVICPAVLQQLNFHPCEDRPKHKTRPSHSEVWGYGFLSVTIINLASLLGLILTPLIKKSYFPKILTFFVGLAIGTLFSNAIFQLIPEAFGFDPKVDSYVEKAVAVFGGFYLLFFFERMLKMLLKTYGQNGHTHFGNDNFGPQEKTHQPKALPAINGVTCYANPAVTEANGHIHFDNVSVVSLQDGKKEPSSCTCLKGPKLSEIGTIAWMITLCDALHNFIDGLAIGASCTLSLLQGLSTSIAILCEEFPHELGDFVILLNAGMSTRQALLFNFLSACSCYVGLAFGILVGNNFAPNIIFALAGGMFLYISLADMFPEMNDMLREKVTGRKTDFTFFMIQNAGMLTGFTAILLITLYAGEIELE
UniProt Q0GE19: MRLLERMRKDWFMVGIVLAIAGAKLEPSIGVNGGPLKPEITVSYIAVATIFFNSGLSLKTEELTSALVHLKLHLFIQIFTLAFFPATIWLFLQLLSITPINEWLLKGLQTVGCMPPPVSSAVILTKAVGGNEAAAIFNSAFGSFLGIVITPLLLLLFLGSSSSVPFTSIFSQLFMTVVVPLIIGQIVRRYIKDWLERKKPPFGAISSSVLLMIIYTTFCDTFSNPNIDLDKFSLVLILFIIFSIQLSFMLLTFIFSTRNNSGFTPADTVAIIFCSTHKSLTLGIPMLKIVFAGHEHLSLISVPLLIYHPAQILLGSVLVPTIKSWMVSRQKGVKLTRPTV
UniProt Q9H2X9: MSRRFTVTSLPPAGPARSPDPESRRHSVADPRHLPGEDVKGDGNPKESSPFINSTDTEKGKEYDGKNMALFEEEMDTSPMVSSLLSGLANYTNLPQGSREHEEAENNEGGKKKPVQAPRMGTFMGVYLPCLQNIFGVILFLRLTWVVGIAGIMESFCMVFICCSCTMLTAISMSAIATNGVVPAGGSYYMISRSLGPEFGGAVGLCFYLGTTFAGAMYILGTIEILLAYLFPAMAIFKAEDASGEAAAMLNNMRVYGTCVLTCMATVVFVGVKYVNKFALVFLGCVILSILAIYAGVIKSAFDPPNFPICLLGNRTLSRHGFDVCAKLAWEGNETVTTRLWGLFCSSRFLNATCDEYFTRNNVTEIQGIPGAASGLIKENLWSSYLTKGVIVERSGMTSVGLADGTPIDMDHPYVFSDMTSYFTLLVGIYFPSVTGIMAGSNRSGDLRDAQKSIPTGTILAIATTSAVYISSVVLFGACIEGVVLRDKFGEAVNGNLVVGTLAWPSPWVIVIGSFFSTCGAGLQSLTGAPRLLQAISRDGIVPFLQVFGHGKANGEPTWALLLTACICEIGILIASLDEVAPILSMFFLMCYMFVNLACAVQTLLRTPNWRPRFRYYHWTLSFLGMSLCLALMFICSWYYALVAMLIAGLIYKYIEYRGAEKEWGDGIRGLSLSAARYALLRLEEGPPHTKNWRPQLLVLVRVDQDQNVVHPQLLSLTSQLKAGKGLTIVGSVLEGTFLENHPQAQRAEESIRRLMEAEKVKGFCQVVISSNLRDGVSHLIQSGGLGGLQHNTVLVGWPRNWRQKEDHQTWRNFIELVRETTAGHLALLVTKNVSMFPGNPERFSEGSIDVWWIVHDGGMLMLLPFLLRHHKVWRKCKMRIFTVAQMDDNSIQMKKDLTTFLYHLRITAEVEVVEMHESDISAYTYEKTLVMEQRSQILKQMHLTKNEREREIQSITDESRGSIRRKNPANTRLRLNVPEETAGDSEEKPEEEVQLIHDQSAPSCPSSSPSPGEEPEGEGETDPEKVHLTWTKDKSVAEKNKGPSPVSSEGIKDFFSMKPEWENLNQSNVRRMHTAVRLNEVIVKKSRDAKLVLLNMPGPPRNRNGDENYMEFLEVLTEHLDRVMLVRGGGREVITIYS
UniProt Q8NBW4: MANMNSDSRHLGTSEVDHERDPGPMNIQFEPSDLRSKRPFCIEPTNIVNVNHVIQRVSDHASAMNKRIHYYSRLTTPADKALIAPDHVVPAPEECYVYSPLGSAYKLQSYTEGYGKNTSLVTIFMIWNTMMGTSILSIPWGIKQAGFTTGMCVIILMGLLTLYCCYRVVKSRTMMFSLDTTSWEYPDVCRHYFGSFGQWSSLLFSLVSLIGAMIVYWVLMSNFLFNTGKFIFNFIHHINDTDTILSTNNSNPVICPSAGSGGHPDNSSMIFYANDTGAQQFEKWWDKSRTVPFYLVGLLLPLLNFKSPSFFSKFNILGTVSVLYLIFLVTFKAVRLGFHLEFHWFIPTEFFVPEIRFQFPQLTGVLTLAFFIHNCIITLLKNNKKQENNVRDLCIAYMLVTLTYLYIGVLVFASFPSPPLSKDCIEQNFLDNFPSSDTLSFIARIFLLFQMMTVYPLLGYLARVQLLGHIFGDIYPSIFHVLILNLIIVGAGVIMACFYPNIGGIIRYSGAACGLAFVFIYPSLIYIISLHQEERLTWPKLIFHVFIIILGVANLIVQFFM
UniProt Q14542: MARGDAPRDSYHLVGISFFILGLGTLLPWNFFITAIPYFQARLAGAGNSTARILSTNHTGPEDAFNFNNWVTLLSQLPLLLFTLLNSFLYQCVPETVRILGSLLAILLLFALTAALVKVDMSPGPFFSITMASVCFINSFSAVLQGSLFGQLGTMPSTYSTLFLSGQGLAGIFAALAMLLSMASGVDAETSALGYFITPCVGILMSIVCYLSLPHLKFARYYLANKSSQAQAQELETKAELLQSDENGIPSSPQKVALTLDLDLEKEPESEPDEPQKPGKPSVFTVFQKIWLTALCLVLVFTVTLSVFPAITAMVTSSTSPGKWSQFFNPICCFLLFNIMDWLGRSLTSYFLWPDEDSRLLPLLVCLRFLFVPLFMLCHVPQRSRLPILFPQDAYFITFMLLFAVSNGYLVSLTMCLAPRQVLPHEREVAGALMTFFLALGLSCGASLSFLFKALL
UniProt P50443: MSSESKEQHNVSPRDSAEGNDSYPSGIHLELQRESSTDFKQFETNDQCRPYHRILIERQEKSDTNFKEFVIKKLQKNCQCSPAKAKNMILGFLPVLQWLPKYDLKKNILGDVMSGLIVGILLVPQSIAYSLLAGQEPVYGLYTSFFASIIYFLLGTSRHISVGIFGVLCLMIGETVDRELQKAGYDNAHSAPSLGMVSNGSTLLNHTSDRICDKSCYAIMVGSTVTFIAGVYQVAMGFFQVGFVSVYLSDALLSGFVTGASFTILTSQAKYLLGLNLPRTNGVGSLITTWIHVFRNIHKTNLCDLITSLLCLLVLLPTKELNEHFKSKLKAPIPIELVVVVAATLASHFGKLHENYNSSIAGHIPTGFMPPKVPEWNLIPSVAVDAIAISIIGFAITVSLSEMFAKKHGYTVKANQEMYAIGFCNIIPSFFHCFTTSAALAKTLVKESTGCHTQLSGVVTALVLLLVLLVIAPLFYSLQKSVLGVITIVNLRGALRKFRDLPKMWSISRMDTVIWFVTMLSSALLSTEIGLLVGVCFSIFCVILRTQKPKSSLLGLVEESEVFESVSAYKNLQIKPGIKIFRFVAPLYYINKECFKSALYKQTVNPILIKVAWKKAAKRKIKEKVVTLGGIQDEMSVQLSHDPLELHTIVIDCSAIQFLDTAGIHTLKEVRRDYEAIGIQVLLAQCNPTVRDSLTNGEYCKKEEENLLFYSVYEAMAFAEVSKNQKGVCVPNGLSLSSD
UniProt Q6ZP29: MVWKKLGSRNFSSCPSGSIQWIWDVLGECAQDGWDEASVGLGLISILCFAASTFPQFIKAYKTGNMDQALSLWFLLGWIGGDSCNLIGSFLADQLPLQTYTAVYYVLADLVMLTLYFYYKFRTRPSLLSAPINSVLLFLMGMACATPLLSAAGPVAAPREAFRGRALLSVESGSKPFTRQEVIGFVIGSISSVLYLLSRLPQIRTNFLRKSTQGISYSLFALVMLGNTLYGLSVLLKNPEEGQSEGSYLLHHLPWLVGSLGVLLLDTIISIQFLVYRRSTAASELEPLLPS

How the values were obtained:
Experiment in all cases: log2 fold change, soluble protein after heating vs DMSO (PISA); higher = thermal stabilisation; K562 cells, 10 uM, 30 min; active = over 0.2 and 3.5 SD of the protein, either way, in both replicates (recomputed)
[1] = compound: C#Cc1cccc(Nc2ncnc3cc(OCCOC)c(OCCOC)cc23)c1 [erlotinib]
Method in brief: (§1)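 K562 cells at 2×10^6 cells/mL were treated for 30 min with 10 μM compound, and aliquots were heated for 3 min over 48°C-58°C before pooling. Extraction used PBS with 0.5% NP-40 at 4°C, and soluble protein was the supernatant after 21,000xg for 90 min, measured by TMTpro 16plex LC-MS/MS with channel sums equalised. Thermal stability values, relative to control samples and from duplicates, are log2 fold changes.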

[2] = compound: C/C(=N\NC(=O)C1=CC(=CC=C1)S(=O)(=O)N2CCOCC2)/C3=C(C=CC(=C3)Cl)O
Method in brief: as §1

[3] = compound: C1=CC(=C(C=C1Cl)C2=NC3=NC=CN=C3C(=N2)NC4=CC=NC=C4)F
Method in brief: as §1

[4] = compound: C1=CC(=CC=C1C2=NC3=C(N2)C=C(C=C3)C(=O)N)OC4=CC=C(C=C4)Cl
Method in brief: as §1

[5] = compound: C1=CC2=C(C=CC(=C2)/C=C\3/C(=O)NC(=NCC4=CC=CS4)S3)N=C1
Method in brief: as §1

[6] = compound: C1=CC2=NC=CN=C2C=C1/C=C/3\C(=O)NC(=O)S3
Method in brief: as §1

[7] = compound: C1=CC=C(C=C1)C2=NC(=C(N2)C3=CC=NC=C3)C4=CC(=C(C=C4)Cl)O
Method in brief: as §1

[8] = compound: C1=CC=C2C(=C1)C3=NNC4=CC=CC(=C43)C2=O
Method in brief: as §1

[9] = compound: C1CCN(C1)C(=O)NC2=CC=CC(=C2)NC3=NC=C(C(=N3)NCCC4=CN=CN4)Br
Method in brief: as §1

[10] = compound: C1CN(CCC1(CC2=CC=C(C=C2)Cl)N)C3=NC=NC4=C3C=CN4
Method in brief: as §1

Row | Target | log2 fold change [1] | log2 fold change [2] | log2 fold change [3] | log2 fold change [4] | log2 fold change [5] | log2 fold change [6] | log2 fold change [7] | log2 fold change [8] | log2 fold change [9] | log2 fold change [10]
1 | SLC25A16 (UniProt P16260) | inactive: -0.002 | inactive: 0.023 | inactive: 0.002 | inactive: 0.076 | inactive: 0.073 | inactive: -0.038 | inactive: -0.024 | inactive: -0.038 | inactive: -0.067 | inactive: 0.11
2 | SLC3A2 isoform 3 (UniProt P08195) | inactive: 0.031 | inactive: 0.046 | inactive: 0.032 | inactive: 0 | inactive: -0.035 | inactive: -0.01 | inactive: 0.03 | inactive: -0.044 | inactive: -0.064 | inactive: 0.074
3 | SLC35A5 (UniProt Q9BS91) | inactive: -0.037 | inactive: -0.123 | inactive: -0.08 | inactive: 0.015 | inactive: 0.054 | – | – | inactive: -0.06 | inactive: 0.06 | inactive: -0.037
4 | SLC35B3 (UniProt Q9H1N7) | inactive: 0.048 | inactive: -0.101 | inactive: -0.021 | inactive: 0.092 | inactive: 0.162 | inactive: 0.012 | inactive: 0.041 | inactive: -0.02 | inactive: -0.03 | inactive: -0.014
5 | SLC25A31 (UniProt Q9H0C2) | inactive: 0.015 | inactive: 0.016 | inactive: 0.047 | inactive: -0.013 | inactive: -0.011 | inactive: 0.009 | inactive: 0.043 | inactive: 0.021 | inactive: -0.034 | inactive: 0.036
6 | SLC25A20 (UniProt O43772) | inactive: 0.006 | inactive: -0.05 | inactive: 0.016 | inactive: -0.009 | inactive: 0 | inactive: 0.052 | inactive: -0.1 | inactive: -0.016 | inactive: 0.036 | inactive: 0.027
7 | SLBP (UniProt Q14493) | inactive: 0.006 | inactive: 0.03 | inactive: -0.058 | inactive: 0.019 | inactive: -0.111 | inactive: 0.035 | inactive: 0.005 | inactive: 0.008 | inactive: 0.008 | inactive: -0.039
8 | SLC20A1 (UniProt Q8WUM9) | inactive: 0.002 | inactive: -0.061 | inactive: -0.036 | inactive: 0.046 | inactive: 0.036 | inactive: 0.025 | inactive: -0.023 | inactive: -0.043 | inactive: 0.004 | inactive: 0.044
9 | SLC39A11 (UniProt Q8N1S5) | inactive: -0.042 | inactive: -0.009 | – | inactive: 0.05 | inactive: 0.043 | inactive: 0.009 | inactive: 0.07 | inactive: 0.053 | inactive: -0.144 | inactive: 0.019
10 | SLC25A14 isoform 3 (UniProt O95258) | inactive: 0.015 | inactive: -0.001 | – | inactive: 0.026 | inactive: 0.067 | inactive: 0.098 | inactive: 0.079 | inactive: 0.002 | inactive: 0.002 | inactive: 0.208
11 | SLC25A40 (UniProt Q8TBP6) | inactive: -0.053 | inactive: 0.022 | inactive: 0.048 | inactive: -0.029 | inactive: -0.015 | inactive: 0.043 | inactive: -0.007 | inactive: -0.005 | inactive: -0.069 | inactive: 0.029
12 | SLC33A1 (UniProt O00400) | inactive: 0.005 | inactive: -0.014 | inactive: 0.051 | inactive: 0.006 | inactive: 0.011 | inactive: 0.063 | inactive: 0.187 | inactive: 0.025 | inactive: -0.026 | inactive: 0.093
13 | SLC35B4 (UniProt Q969S0) | inactive: -0.055 | inactive: 0.194 | inactive: -0.033 | inactive: 0.105 | inactive: 0.085 | inactive: 0.024 | – | inactive: -0.243 | inactive: -0.015 | inactive: -0.231
14 | SLC25A32 (UniProt Q9H2D1) | inactive: 0.021 | inactive: 0.021 | inactive: -0.056 | inactive: 0.022 | inactive: -0.017 | inactive: 0.082 | inactive: -0.031 | inactive: 0.002 | inactive: 0.009 | inactive: 0.071
15 | SLC12A6 isoform 2 (UniProt Q9UHW9) | inactive: 0.007 | inactive: 0.082 | inactive: -0.01 | inactive: 0.041 | inactive: -0.011 | inactive: -0.004 | inactive: 0.034 | inactive: -0.038 | inactive: -0.007 | inactive: 0.029
16 | SLC39A8 (UniProt Q9C0K1) | inactive: 0.022 | inactive: -0.012 | inactive: -0.069 | inactive: 0.018 | inactive: -0.012 | inactive: 0.052 | inactive: 0.03 | inactive: 0.029 | inactive: -0.007 | inactive: 0.07
17 | SLC7A1 (UniProt P30825) | inactive: 0.009 | inactive: 0.021 | inactive: 0.054 | inactive: 0.026 | inactive: -0.015 | inactive: 0.056 | inactive: 0.016 | inactive: -0.055 | inactive: -0.019 | inactive: 0.063

Row | Target | log2 fold change [1] | log2 fold change [2] | log2 fold change [3] | log2 fold change [4] | log2 fold change [5] | log2 fold change [6] | log2 fold change [7] | log2 fold change [8] | log2 fold change [9] | log2 fold change [10]
18 | SLC10A7 isoform 1 (UniProt Q0GE19) | inactive: -0.095 | inactive: 0.123 | – | inactive: 0.034 | inactive: 0.054 | inactive: 0.036 | inactive: -0.105 | inactive: -0.106 | inactive: -0.093 | inactive: 0.099
19 | SLC25A24 (UniProt Q6NUK1) | inactive: -0.025 | inactive: -0.028 | inactive: 0.043 | inactive: 0.008 | inactive: -0.013 | inactive: 0.032 | inactive: -0.002 | inactive: -0.012 | inactive: 0.027 | inactive: 0.049
20 | SLC41A3 isoform 9 (UniProt Q96GZ6) | inactive: 0.031 | inactive: -0.41 | inactive: 0.108 | inactive: 0.016 | inactive: 0.231 | inactive: -0.227 | – | inactive: -0.106 | inactive: 0.06 | inactive: 0.19
21 | SLC19A2 (UniProt O60779) | inactive: -0.147 | inactive: 0.094 | inactive: -0.541 | inactive: 0.281 | inactive: -0.087 | – | inactive: 0.085 | inactive: 0.009 | inactive: -0.054 | inactive: 0.077
22 | SLC12A5 (UniProt Q9H2X9) | inactive: 0.036 | inactive: 0.054 | active: -0.49 | inactive: 0.034 | inactive: 0.098 | inactive: -0.021 | – | inactive: -0.138 | inactive: 0.038 | inactive: 0.103
23 | SLC25A26 (UniProt Q70HW3) | inactive: 0.095 | inactive: 0.001 | inactive: 0.004 | inactive: 0.041 | inactive: -0.015 | inactive: 0.032 | inactive: -0.127 | inactive: 0.114 | inactive: 0.097 | inactive: -0.147
24 | SLC27A4 (UniProt Q6P1M0) | inactive: 0.039 | inactive: 0.013 | inactive: -0.023 | inactive: 0.032 | inactive: 0.082 | inactive: -0.02 | inactive: 0.002 | inactive: 0.061 | inactive: -0.017 | inactive: 0.062
25 | SLC25A19 (UniProt Q9HC21) | inactive: 0.005 | inactive: -0.012 | inactive: 0.052 | inactive: 0 | inactive: -0.01 | inactive: 0.03 | inactive: -0.032 | inactive: -0.033 | inactive: 0.034 | inactive: 0.049
26 | SLC4A1 (UniProt P02730) | inactive: -0.06 | inactive: 0.022 | inactive: 0.059 | inactive: 0.105 | inactive: -0.13 | inactive: -0.121 | inactive: 0.013 | inactive: 0.094 | inactive: 0.024 | inactive: 0.057
27 | SLC38A9 (UniProt Q8NBW4) | inactive: 0.008 | inactive: -0.023 | inactive: -0.018 | inactive: 0.02 | inactive: 0.046 | inactive: 0.063 | inactive: -0.071 | inactive: -0.011 | inactive: -0.042 | inactive: 0.055
28 | SLC29A2 (UniProt Q14542) | inactive: 0.007 | inactive: 0.053 | inactive: -0.01 | inactive: 0.043 | inactive: 0.097 | inactive: 0 | inactive: 0.059 | inactive: -0.004 | inactive: -0.012 | inactive: 0.123
29 | SLC26A2 (UniProt P50443) | – | – | inactive: -0.052 | – | – | – | – | – | – | –
30 | SLC3A2 (UniProt F5H867) | inactive: 0.071 | – | inactive: -0.003 | inactive: 0.052 | – | inactive: -0.003 | – | – | inactive: -0.021 | inactive: 0.08
31 | SLC39A1 (UniProt Q9NY26) | inactive: 0.123 | – | – | inactive: 0.053 | – | – | – | – | – | –
32 | SLC52A2 (UniProt Q9HAB3) | inactive: -0.051 | – | – | inactive: 0.01 | – | inactive: 0.001 | – | – | inactive: -0.364 | inactive: -0.055
33 | SLC66A1 (UniProt Q6ZP29) | inactive: 0.261 | – | – | inactive: 0.004 | – | inactive: 0.036 | – | – | – | –

Quoted at random: 2 entries already listed
Row | Target | log2 fold change [1] | log2 fold change [2] | log2 fold change [3] | log2 fold change [4] | log2 fold change [5] | log2 fold change [6] | log2 fold change [7] | log2 fold change [8] | log2 fold change [9] | log2 fold change [10]
32 | SLC52A2 (UniProt Q9HAB3) | inactive: -0.051 | – | – | inactive: 0.01 | – | inactive: 0.001 | – | – | inactive: -0.364 | inactive: -0.055
28 | SLC29A2 (UniProt Q14542) | inactive: 0.007 | inactive: 0.053 | inactive: -0.01 | inactive: 0.043 | inactive: 0.097 | inactive: 0 | inactive: 0.059 | inactive: -0.004 | inactive: -0.012 | inactive: 0.123
